# PubChem BioAssay AID588590 (National Center for Advancing Translational Sciences (NCATS), 2011)
# Protein sequences, listed by entry. Tags and fused reporters are not part of them. Lines headed by an entry give the natural chain unless they say otherwise; changes in a name come on top.
# UniProt Q9UNA4: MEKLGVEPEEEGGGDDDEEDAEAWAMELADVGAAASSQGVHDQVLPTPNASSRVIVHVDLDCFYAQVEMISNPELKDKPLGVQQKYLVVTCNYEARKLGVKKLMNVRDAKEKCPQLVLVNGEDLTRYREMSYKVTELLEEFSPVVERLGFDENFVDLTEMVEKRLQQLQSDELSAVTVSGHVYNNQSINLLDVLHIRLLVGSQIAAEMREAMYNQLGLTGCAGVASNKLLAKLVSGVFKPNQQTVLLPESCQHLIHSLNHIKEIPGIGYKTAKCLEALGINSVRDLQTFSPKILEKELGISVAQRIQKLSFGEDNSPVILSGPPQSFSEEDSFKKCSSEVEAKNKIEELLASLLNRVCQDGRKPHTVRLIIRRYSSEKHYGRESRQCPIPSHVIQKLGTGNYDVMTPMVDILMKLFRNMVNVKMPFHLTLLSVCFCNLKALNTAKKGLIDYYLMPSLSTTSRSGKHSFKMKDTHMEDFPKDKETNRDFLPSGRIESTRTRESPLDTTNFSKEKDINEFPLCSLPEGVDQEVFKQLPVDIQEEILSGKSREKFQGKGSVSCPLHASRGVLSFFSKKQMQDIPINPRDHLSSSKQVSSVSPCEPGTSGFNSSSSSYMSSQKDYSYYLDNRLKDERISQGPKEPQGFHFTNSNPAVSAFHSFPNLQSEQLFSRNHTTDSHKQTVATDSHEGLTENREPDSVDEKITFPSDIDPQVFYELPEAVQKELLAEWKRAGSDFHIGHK
# Where “and” joins values, the source holds several entries; their conditions need not be identical. Equal entries are not always repeated. Among all 390,000 compounds or so, about 4,000 (1%) were called active. Inconclusive means that the source gave no clear call. Such entries were picked first, then a sample of the others. Calls come from the whole dose curve; as a rule, active = well fitted inhibition curve with a large enough effect; inconclusive = small, poorly fitted or top-dose-only effect, or another doubt; inactive = no such curve, though single readings can be large or run the other way. Potencies beside an inconclusive call are fits to weak or partial responses and may not hold up.
# Biological target: DNA polymerase iota (Homo sapiens) (UniProt Q9UNA4)
# Assay: qHTS for Inhibitors of Polymerase Iota
# Conditions: Pol iota fluorescent replication assay, 10 min; series mostly up to 115 µM; activity, negative = inhibition: at the top concentration
# In short: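 Fluorescent replication assay read twice, at 0 min and 10 min after adding 50 nM (final) substrate. Enzyme (10 nM) and compounds were first incubated 15 min at room temperature; enzyme-free buffer wells were negative controls.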
# Potency is the fitted concentration of half-maximal effect.
SMILES,"activity, negative = inhibition",Potency
Cc1ccc(C(=O)CSc2nc(C)cc(=O)[nH]2)cc1,inactive: 2.06%,
CCCCn1cc(S(=O)(=O)c2ccc(C)c(C)c2)c(=O)c2cc(F)c(N3CCN(C)CC3)cc21,inactive: 32.2%,
O=C1C(=Cc2cccn2-c2ccccc2)C(=O)c2ccccc21,inactive: 37.3%,
CCc1nnc(NC(=O)c2nc(S(=O)(=O)Cc3cccc(C)c3)ncc2Cl)s1,,"inconclusive: 11.2 µM [inhibitor, partial curve, poor fit] and inconclusive: 28.2 µM [inhibitor, partial curve, poor fit]"
CCc1nn(CC(=O)NC(C)CCc2ccccc2)c(=O)c2cc3cc(F)ccc3n12 (stereo not given),,"inconclusive: 17.8 µM [inhibitor, full curve]"
Cc1ccc2nc(NC(=O)CCCC(=O)O)sc2c1,,"inconclusive: 70.8 µM [inhibitor, partial curve, poor fit]"
CC(C)(C)C(=O)c1cn(CC(=O)NCc2ccc3c(c2)OCO3)c2ccccc12,,"inconclusive: 22.4 µM [inhibitor, single point]"
Cn1c(NCCCCO)nc2c1c(=O)n(Cc1ccc(Cl)cc1)c(=O)n2C,inactive: 24.4%,
COc1ccc(NC(=O)Cn2c(=O)n(CCCC(=O)NCc3ccccc3OC)c(=O)c3ccccc32)cc1Cl,inactive: -13.1%,
Cc1ccc(C(=C2C3C=CC2C2C(=O)NC(=O)C32)c2ccc(C)cc2)cc1 (stereo not given),,"inconclusive: 22.4 µM [inhibitor, partial curve, poor fit]"
Cc1sc2nc(CSCC(=O)NC3CCCCC3)[nH]c(=O)c2c1C,,"inconclusive: 12.6 µM [inhibitor, partial curve]"
CN(C)c1ccc(-c2ccc(CCO)cc2)cc1,,"inconclusive: 100 µM [inhibitor, partial curve, poor fit]"
CC1(C)C=C2C(=NN(c3ccccc3)C(N)=C2C#N)CO1,,active: 14.1 µM
CCCCCC(=O)N1CC2(CC(c3cccc(NC(=O)CC(c4ccccc4)c4ccccc4)c3)=NO2)C[C@@H]1C(N)=O (stereo not given in full),,"inconclusive: 15.8 µM [inhibitor, partial curve]"
CCn1c(=O)cc(OCC(=O)O)c2ccccc21,inactive: 10.7%,
Cc1cccc(OCc2cc(=O)n3c(-c4ccccc4)csc3n2)c1C,,"inconclusive: 79.4 µM [inhibitor, partial curve]"
Cn1c(SSc2ccc(-c3cccnc3)n2C)ccc1-c1cccnc1,,"inconclusive: 15.8 µM [inhibitor, partial curve, poor fit]"
CCOc1ccccc1C(=O)OCC(=O)Nc1cccc(S(=O)(=O)NC2=NCCCCC2)c1,inactive: 4.83%,
COc1cccc(CC(NC(C)=O)C(=O)NC2CCN(c3c4c(nc5ncnn35)CCC4)CC2)c1 (stereo not given),,"inconclusive: 39.8 µM [inhibitor, single point]"
COc1c2c(c(CCC(=O)O)c3c1C=CC(C)(C)O3)OC(C)(C)C=C2,,"inconclusive: 50.1 µM [inhibitor, partial curve]"
NS(=O)(=O)c1cccc(NC(=O)COC(=O)Cn2cnc3ccccc32)c1,,"inconclusive: 79.4 µM [inhibitor, partial curve, poor fit]"
CCOC(=O)c1sc(N=NC2=C(O)CCCC2=O)c(C(=O)OCC)c1C,,"inconclusive: 3.55 µM [inhibitor, full curve, poor fit]"

SMILES,"activity, negative = inhibition",Potency
NC(=O)CC(O)c1cccc(Cl)c1 (stereo not given),,"inconclusive: 3.16 µM [inhibitor, single point]"
Cc1cc(C)cc(OCCn2c(C3CC(=O)N(c4ccccc4Cl)C3)nc3ccccc32)c1 (stereo not given),,"inconclusive: 89.1 µM [inhibitor, single point]"
COCc1cc(C)nc(N2CCc3ccccc32)c1C#N,,"inconclusive: 79.4 µM [inhibitor, single point]"
c1cc2c(cc1Oc1nc(N3CCOCC3)nc(N3CCOCC3)n1)OCO2,,"inconclusive: 89.1 µM [inhibitor, partial curve, poor fit]"
Cc1cc(OCC(=O)Nc2ccc(S(=O)(=O)N3CCN(C)CC3)cc2)cc(C)c1Cl,,"inconclusive: 28.2 µM [inhibitor, partial curve, poor fit]"
CN1CCN(S(=O)(=O)c2cccc(C(=O)Nc3nccs3)c2)CC1,,"inconclusive: 56.2 µM [inhibitor, partial curve]"
COCCN(CC(=O)NCC1CCCO1)C(=O)CCC(=O)Nc1ccccn1 (stereo not given),inactive: -14%,
Cc1ccc2c(=O)c(C(=O)c3ccccc3)cn(CC(=O)Nc3ccc4c(c3)OCCO4)c2n1,,"inconclusive: 89.1 µM [inhibitor, single point]"
COc1cc(/C=N/NC(=O)c2ccccn2)ccc1OC(=O)c1ccccc1Br,,"inconclusive: 89.1 µM [inhibitor, partial curve, poor fit]"
Cn1cccc1C(=O)OCc1nc2ccccc2c(=O)[nH]1,,active: 17.8 µM
COc1ccc(NC(=O)Nc2cccc(OC)c2)cc1,,"inconclusive: 89.1 µM [inhibitor, single point]"
CCOc1ccc(-n2c(SCc3nc(-c4ccc(OC)cc4)no3)nnc2-c2ccncc2)cc1,inactive: 17.9%,
Cc1csc(NC(=O)CSc2nnc3c4ccccc4nc(C(C)(C)C)n23)n1,,"inconclusive: 25.1 µM [inhibitor, single point]"
COc1ccc(CCC2CCNCC2)cc1,,"inconclusive: 31.6 µM [inhibitor, single point]"
O=C(C1CC(=O)N(c2ccc3c(c2)OCCO3)C1)N1CCN(c2ccccc2)CC1 (stereo not given),,"inconclusive: 56.2 µM [inhibitor, partial curve, poor fit]"
CCCCCCC1(C)NC(c2ccc3c(c2)OCO3)=CC(c2cc(Br)ccc2O)N1 (stereo not given),,"inconclusive: 14.1 µM [inhibitor, full curve, poor fit]"
CCOC(=O)N1CCN(C(=O)C2CCN(C(=O)c3ccccc3C)CC2)CC1,,"inconclusive: 25.1 µM [inhibitor, single point]"
O=C(COC(=O)c1cccs1)NCc1ccco1,,active: 20 µM
Cc1ccc(-c2noc(-c3ccc(N4CCC(C)CC4)c([N+](=O)[O-])c3)n2)cc1,,"inconclusive: 89.1 µM [inhibitor, single point]"
CC1(C)CC(=O)CC(=NCC(=O)O)C1,,"inconclusive: 4.47 µM [inhibitor, full curve, poor fit]"
O=C(O)c1cc(Nc2cc(Cl)c3nonc3c2[N+](=O)[O-])ccc1O,,"inconclusive: 1.78 µM [inhibitor, partial curve, poor fit]"
NC(CSC1(c2ccc(Cl)cc2)c2ccccc2-c2ccccc21)C(=O)O (stereo not given),,"inconclusive: 31.6 µM [inhibitor, single point]"

SMILES,"activity, negative = inhibition",Potency
COCCNC(=O)C(=O)N/N=C/c1cccs1,inactive: 22.5%,
C=CCN(CC=C)CC(=O)Nn1c(C)ccc1C,,"inconclusive: 14.1 µM [inhibitor, partial curve, poor fit]"
O=C(/C=C/c1ccco1)Nc1ccc(Oc2ccc(Cl)cc2)cc1,,"inconclusive: 39.8 µM [inhibitor, single point]"
Cc1cc(/C=C2\NC(=S)NC2=O)c(C)n1-c1cccnc1,,"inconclusive: 44.7 µM [inhibitor, partial curve]"
Fc1ccc(C2CC(c3cccs3)=NN2c2ccccc2)cc1 (stereo not given),inactive: 54%,
COc1cccc(C(=O)NC2CC3CCCC(C2)N3CC(=O)Nc2ccccc2)c1 (stereo not given),,"inconclusive: 6.31 µM [inhibitor, full curve, poor fit]"
C=C(C)Cn1c(SCC(=O)c2ccc(OC)cc2)nc2sc3c(c2c1=O)CCCC3,,"inconclusive: 100 µM [inhibitor, single point]"
Cc1cc(SCC(=O)NN)c2cc(Br)ccc2n1,,"inconclusive: 10 µM [inhibitor, full curve, poor fit]"
O=C1CSC(=S)N1/N=C/c1ccc(O)c([N+](=O)[O-])c1,,"inconclusive: 8.91 µM [inhibitor, full curve, poor fit]"
Cc1nc2ccc(C(=O)N/N=C/c3ccc(O)cc3)cc2[nH]1,,"inconclusive: 12.6 µM [inhibitor, full curve, poor fit]"
Cc1nnc(NC(=O)c2sc3ccccc3c2Cl)s1,inactive: 1.98%,
Fc1cccc2sc(Nc3nnc(-c4ccco4)o3)nc12,,"inconclusive: 79.4 µM [inhibitor, partial curve, poor fit]"
COc1cc(C(=O)Nc2ccc(O)cc2C(=O)O)ccc1OC(C)=O,,"inconclusive: 50.1 µM [inhibitor, partial curve, poor fit]"
COc1ccc(C(=O)OCC(=O)NCCCc2ccccc2)cc1[N+](=O)[O-],inactive: 126%,
CCc1ccccc1NC(=O)C(CC)Sc1ncnc2c1sc1ccccc12 (stereo not given),inactive: 22.9%,
CSCC[C@H](NC(=O)c1cccc(S(=O)(=O)N2CCN(C)CC2)c1)c1nc2ccccc2[nH]1,,"inconclusive: 79.4 µM [inhibitor, partial curve]"
COc1cc(/C=C2/C(=N)N3C(=NC2=O)SN=C3S(=O)(=O)C(C)C)ccc1OC(=O)c1ccco1,,"inconclusive: 31.6 µM [inhibitor, single point]"
CC(OC(=O)C1CCN(S(=O)(=O)c2ccc(C(C)(C)C)cc2)CC1)C(=O)N1CCOCC1 (stereo not given),inactive: 4.78%,
CCOC(=O)c1csc(NC(=O)c2cc(=O)c3ccccc3o2)n1,,"inconclusive: 89.1 µM [inhibitor, single point]"
CC(C)c1ccc(NC(=O)Cn2nnc(C(=O)NCc3ccco3)c2N)cc1,,"inconclusive: 50.1 µM [inhibitor, partial curve, poor fit]"
COc1ccc(-n2c(SC)nc(O)c(Cc3ccccc3)c2=O)cc1,inactive: -2.76%,
